Measurements reported in PubChem BioAssay AID1159584 (Peter MacCallum Cancer Centre, 2016)
Shown is a random part of about 18,000 reagents tested. Further read-outs or replicates are left out here. Reagent sequences are not shown. Not given: the amount of reagent, the time to read-out.

Screen: 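Genes that CDH1-null MCF10A cells selectively depend on to survive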 (primary screen)
Cells: human MCF10A breast epithelial cells, parental and CDH1-null
Reagent: siRNA against human genes
Detection: 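ATP luminescence (CellTiter-Glo) viability per line relative to mean mock wells over all plates, and the ratio of CDH1-null to parental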
Reading the numbers: CDH1-null / parental viability ratio: higher = CDH1-null cells survive relatively better than parental; CDH1-null viability vs mock: higher = more viable CDH1-null cells
Units: CDH1-null viability vs mock in fraction of mock

After knock-down of SLC15A1, the record shows CDH1-null / parental viability ratio 0.96; CDH1-null viability vs mock 0.66.
SLC25A33 showed CDH1-null / parental viability ratio 1.22; CDH1-null viability vs mock 0.96.
Against UBA2, the entry reads CDH1-null / parental viability ratio 1.11; CDH1-null viability vs mock 0.71.
Silencing of DACH1 came out at: CDH1-null / parental viability ratio 1.32; CDH1-null viability vs mock 1.
For COX7A2L, the values are CDH1-null / parental viability ratio 0.89; CDH1-null viability vs mock 0.64.
ASGR2 showed CDH1-null / parental viability ratio 1.02; CDH1-null viability vs mock 0.88.
After knock-down of STOX1, the screen gave CDH1-null / parental viability ratio 1.04; CDH1-null viability vs mock 1.12.
Knock-down of VAV2 came out at: CDH1-null / parental viability ratio 0.94; CDH1-null viability vs mock 0.76.
For ANKRD35, the entry reads CDH1-null / parental viability ratio 0.89; CDH1-null viability vs mock 0.8.
Silencing of USP6 gave: CDH1-null / parental viability ratio 1.17; CDH1-null viability vs mock 0.74.
For ZDHHC17 the deposit lists CDH1-null / parental viability ratio 1.12; CDH1-null viability vs mock 0.93.
Against NUTF2 the deposit lists CDH1-null / parental viability ratio 0.94; CDH1-null viability vs mock 0.58.
Against IL17B, the entry reads CDH1-null / parental viability ratio 0.88; CDH1-null viability vs mock 0.57.
After knock-down of SNX15, the screen gave CDH1-null / parental viability ratio 1.06; CDH1-null viability vs mock 0.87.
Silencing of SMPD4 gave: CDH1-null / parental viability ratio 0.78; CDH1-null viability vs mock 0.7.
Depletion of CEACAM8 resulted in: CDH1-null / parental viability ratio 0.94; CDH1-null viability vs mock 0.78.
Knock-down of OR52M1 came out at: CDH1-null / parental viability ratio 1.17; CDH1-null viability vs mock 0.56.
After knock-down of CDK3, the record shows CDH1-null / parental viability ratio 0.94; CDH1-null viability vs mock 0.82.
Depletion of CCDC71 gave: CDH1-null / parental viability ratio 0.93; CDH1-null viability vs mock 0.83.
Against KIF1A, the values are CDH1-null / parental viability ratio 1.11; CDH1-null viability vs mock 0.92.
Against CST9, the values are CDH1-null / parental viability ratio 1.55; CDH1-null viability vs mock 0.82.
Knock-down of ZNF385D came out at: CDH1-null / parental viability ratio 1; CDH1-null viability vs mock 0.84.
For CDAN1, the values are CDH1-null / parental viability ratio 1; CDH1-null viability vs mock 0.9.
HTR1A showed CDH1-null / parental viability ratio 1.76; CDH1-null viability vs mock 0.95.
TRIM52 gave CDH1-null / parental viability ratio 0.94; CDH1-null viability vs mock 0.92.
CEP85L showed CDH1-null / parental viability ratio 1.04; CDH1-null viability vs mock 1.03.
Against OR2L2, the values are CDH1-null / parental viability ratio 1.13; CDH1-null viability vs mock 0.61.
With knock-down of CALML6, the screen gave CDH1-null / parental viability ratio 0.92; CDH1-null viability vs mock 0.88.
VAPB gave CDH1-null / parental viability ratio 0.75; CDH1-null viability vs mock 0.88.
SSTR4 gave CDH1-null / parental viability ratio 0.78; CDH1-null viability vs mock 0.64.
For RPL38 the deposit lists CDH1-null / parental viability ratio 1.06; CDH1-null viability vs mock 0.34.
For CPEB4, the values are CDH1-null / parental viability ratio 1.14; CDH1-null viability vs mock 0.97.
Depletion of PARP15 gave: CDH1-null / parental viability ratio 1.12; CDH1-null viability vs mock 0.92.
With knock-down of HNF1B, the record shows CDH1-null / parental viability ratio 1.17; CDH1-null viability vs mock 1.15.
MRPL23 gave CDH1-null / parental viability ratio 1.38; CDH1-null viability vs mock 0.72.

Part of the list above in another layout:
gene,CDH1-null / parental viability ratio,CDH1-null viability vs mock
VAPB,0.75,0.88
SSTR4,0.78,0.64
RPL38,1.06,0.34
CPEB4,1.14,0.97
PARP15,1.12,0.92
